Source: doi:10.1101/2022.08.09.502851
Results are given in words; binding and its absence hold for the method and conditions named. Some results given as binding are weak or reduced against the parent protein; the word gives no strength.

Target: T1, α-dystroglycan with the knock-in mutation T190M, from Dag1 T190M mouse skeletal muscle (mouse) (UniProt Q62165)
T1 sequence (chain, matriglycan shorter than wild type (α-DG laminin-binding band at ~100-150 kDa)): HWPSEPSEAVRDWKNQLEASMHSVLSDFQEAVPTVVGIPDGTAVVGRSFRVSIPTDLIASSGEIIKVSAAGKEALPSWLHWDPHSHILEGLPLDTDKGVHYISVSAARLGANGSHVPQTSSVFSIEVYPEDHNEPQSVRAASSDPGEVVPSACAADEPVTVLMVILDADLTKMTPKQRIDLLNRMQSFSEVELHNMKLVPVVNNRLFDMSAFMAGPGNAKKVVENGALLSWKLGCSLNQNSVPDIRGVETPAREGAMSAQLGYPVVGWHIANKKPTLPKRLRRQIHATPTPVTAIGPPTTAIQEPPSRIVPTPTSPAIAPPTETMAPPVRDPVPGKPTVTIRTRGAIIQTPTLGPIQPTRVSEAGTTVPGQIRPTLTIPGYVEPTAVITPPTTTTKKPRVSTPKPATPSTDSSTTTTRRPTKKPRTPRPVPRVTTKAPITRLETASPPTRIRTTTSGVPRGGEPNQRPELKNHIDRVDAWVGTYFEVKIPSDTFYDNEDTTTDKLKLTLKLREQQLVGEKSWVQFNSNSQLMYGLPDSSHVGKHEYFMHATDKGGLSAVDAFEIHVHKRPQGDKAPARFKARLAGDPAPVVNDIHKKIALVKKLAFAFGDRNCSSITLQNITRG
Assay: far-Western, overlay or dot blot

Substance: laminin-111 (mouse Engelbreth-Holm-Swarm (EHS) laminin) (from UniProt P19137 25-3083; P02469 22-1786; P02468 34-1607) (complex)
- binding: binds
